PubChem BioAssay AID504744 | Drosophila RNAi Screening Center – 2011
The deposit covers about 23,000 reagents; this is a random part of those with a known target gene and a result. Of all reagents, 98 (0.43%) are marked active. 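Only hit calls are given; the phospho-dAkt signals, z-scores and hit direction were not deposited.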 A plus sign joins genes that one reagent is predicted to hit.

Test: 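Find genes whose loss alters insulin-driven dAkt phosphorylation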 (primary screen)
Cell system: Drosophila Kc167 cells
Knock-down reagent: long dsRNA against Drosophila genes, 250 ng dsRNA per well of a 384-well plate
Timing: 3 days of knock-down, then overnight serum-free starvation before stimulation
Treatment: bovine insulin at 387 nM for 10 minutes after 12 h without serum
Measurement: 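In-cell antibody fluorescence for phospho-dAkt in each well over DNA-dye signal, with log2 residuals expressed as z-scores adjusted for cell count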
Call rule: 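Hit in the insulin screen when the two-replicate mean z-score is more extreme than plus or minus 2.5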

CG34266 [DRSC08323]
- Outcome: inactive

CG14756 [DRSC06491]
- Outcome: inactive

Ppt2 [DRSC02786]
- Outcome: inactive

Rpn7 [DRSC16841]
- Outcome: inactive

CG3860 [DRSC04425]
- Outcome: inactive

CG3652 [DRSC00624]
- Outcome: inactive

Acp65Aa [DRSC09663]
- Outcome: inactive

ND-B17 [DRSC01981]
- Outcome: inactive

CG17127 [DRSC02581]
- Outcome: inactive

CG15170 [DRSC02471]
- Outcome: inactive

CG30431 [DRSC04902]
- Outcome: inactive

CG30431 [DRSC04904]
- Outcome: inactive

Yp3 [DRSC20302]
- Outcome: inactive

kon [DRSC02033]
- Outcome: inactive

TTLL12 [DRSC06555]
- Outcome: inactive

Jhbp7 [DRSC14408]
- Outcome: inactive

CG15812 [DRSC08479]
- Outcome: inactive

CG14253 [DRSC14748]
- Outcome: inactive

vnd [DRSC17360]
- Outcome: inactive

vnd [DRSC18849]
- Outcome: inactive

vnd [DRSC22487]
- Outcome: inactive

Hip1 [DRSC09812]
- Outcome: inactive

CG32576 [DRSC19136]
- Outcome: inactive

CG14780 [DRSC18566]
- Outcome: inactive

Ent1 [DRSC00330]
- Outcome: inactive

CG15353 [DRSC00383]
- Outcome: inactive

spaw [DRSC06824]
- Outcome: inactive

CG12477 [DRSC09886]
- Outcome: inactive

Ttd14 [DRSC06632]
- Outcome: inactive

Ttd14 [DRSC06942]
- Outcome: inactive

CG32271 [DRSC08198]
- Outcome: inactive

CPT2 [DRSC08553]
- Outcome: inactive

PolZ2 [DRSC12325]
- Outcome: inactive

Tsp42Ea [DRSC04982]
- Outcome: inactive

Tsp42Ea [DRSC06792]
- Outcome: inactive

CG32767 [DRSC18386]
- Outcome: inactive

CG3663 [DRSC04402]
- Outcome: inactive

beta3GalTII [DRSC07253]
- Outcome: inactive

RabX5 [DRSC08608]
- Outcome: inactive

CG30105 [DRSC05668]
- Outcome: inactive

CG11889 + CG11891 [DRSC14426]
- Outcome: inactive

CG11889 + CG11891 [DRSC14427]
- Outcome: inactive

CG43367 + CG32252 (retired record) [DRSC21715]
- Outcome: inactive

Cpr72Ec [DRSC10449]
- Outcome: inactive

BaraA1 + BaraA2 [DRSC05417]
- Outcome: inactive

CG30049 [DRSC21345]
- Outcome: inactive

JYalpha (retired record) + JYalpha [DRSC21700]
- Outcome: inactive

Osi9 [DRSC12278]
- Outcome: inactive

nkd [DRSC11376]
- Outcome: inactive

CycT [DRSC11124]
- Outcome: inactive

Syx16 [DRSC20507]
- Outcome: inactive

CG14315 [DRSC14794]
- Outcome: inactive

Syx4 [DRSC18586]
- Outcome: inactive

CG3740 [DRSC18508]
- Outcome: inactive

CG14629 [DRSC18476]
- Outcome: inactive

CG9067 [DRSC07328]
- Outcome: inactive

Ptp52F [DRSC06717]
- Outcome: inactive

CG11596 [DRSC18540]
- Outcome: inactive

CG6153 [DRSC02935]
- Outcome: inactive

gek [DRSC04688]
- Outcome: inactive

CG15458 [DRSC20529]
- Outcome: inactive

CG10301 [DRSC14226]
- Outcome: active

CG2747 [DRSC15450]
- Outcome: inactive

CG6066 [DRSC15959]
- Outcome: inactive

CG6066 [DRSC22228]
- Outcome: inactive

CG7394 [DRSC10835]
- Outcome: inactive

CG31870 [DRSC21681]
- Outcome: inactive

scny [DRSC10509]
- Outcome: inactive

scny [DRSC10510]
- Outcome: inactive

blot [DRSC09485]
- Outcome: inactive

blot [DRSC11328]
- Outcome: active

CG31668 [DRSC22584]
- Outcome: inactive

msi [DRSC17003]
- Outcome: inactive
